The text below walks through data of paper PMC3240579.

This assay addresses VvMYC1 fused to the GAL4 DNA Binding Domain (Vitis vinifera (grape)) (UniProt B7SNG3). As to the kind of experiment: two-hybrid; yeast AH109; VvMYB5b^R or VvMYB5b^L fused to GAL4 AD, VvMYC1 fused to GAL4 DBD; selection on SD-Trp-Leu-; LacZ activation read as beta-galactosidase activity.

These are yes or no findings as the source states them, for the method shown. Binding calls can cover weak binding; strength is not graded here.

Take “VvMYB5b^R (native VvMYB5b) fused to the GAL4 Activation Domain (from UniProt Q58QD0)”: the binding entry is listed as “binds”.
